PubChem BioAssay AID540256 (National Center for Advancing Translational Sciences (NCATS), 2011)
Several values for one entry are separate records, joined by “and”; a condition that tells them apart may be missing. Equal entries are not always repeated. In all, about 300,000 compounds went through this assay and about 3,700 (1.2%) were called active. Inconclusive means that the source gave no clear call. Such entries were picked first, then a sample of the others. Calls follow the shape of the full dose curve; tested in HEK293 cells. Potencies beside an inconclusive call are fits to weak or partial responses and may not hold up.

Test: qHTS for Inhibitors of binding or entry into cells for Lassa Virus; also: nearly all actives have a fitted effect of over 50% in size
Conditions: Lassa virus pseudotype entry inhibition, cell reporter; activity change, negative = inhibition: at 37.9 µM (top of the series) unless noted
% is scaled to controls: 0 for no effect and ±100 for the full control effect; potency is read from the fitted curve at half-maximal effect.

| SMILES | Potency | activity change, negative = inhibition |
| --- | --- | --- |
| CC(COc1cccc2ccccc12)CN1CCN(C)CC1 (stereo unspecified) | inconclusive: 0.164 µM [activator, full curve, poor fit] |  |
| COC(=O)[C@H]1[C@H](C(=O)OC)[C@@H](C(=O)OC)N(c2ccc(OC)cc2)[C@@H]1C(=O)OC |  | inactive: -0.44% |
| Cc1cccc(C(=O)Nc2sc3c(c2C(=O)Nc2ccccc2)CCC3)c1 | inconclusive: 6.31 µM [activator, single point] |  |
| CC1=C(C(=O)O)N2C(=O)C(NC(=O)c3nn(C)cc3[N+](=O)[O-])C2SC1 (stereo unspecified) | inconclusive: 29.1 µM [activator, single point] |  |
| COc1ccc(/C=C/C(=O)NC(=S)NNC(=O)[C@H]2C[C@@H]2c2ccccc2)cc1OC | inconclusive: 0.562 µM [inhibitor, full curve, poor fit] |  |
| O=C(Nc1ccc2nc(SCC(=O)N3CCc4ccccc43)sc2c1)c1ccc(Cl)cc1 | inconclusive: 0.282 µM [activator, full curve, poor fit] |  |
| CCN(CC)CCOCCOC(=O)C1(c2ccccc2)CCCC1 | inconclusive: 18.3 µM [inhibitor, partial curve] |  |
| CCOc1ccc(CN(C)CC(O)COC(c2ccc(OC)cc2)c2ccc(OC)cc2)cc1 (stereo unspecified) | inconclusive: 15.8 µM [inhibitor, partial curve, poor fit] |  |
| NC(=S)c1cc2cc(Cl)ccc2oc1=O |  | inactive: -22.4% |
| COc1ccc(CN(CC(=O)NCc2ccc(F)cc2)C(=O)c2ccco2)cc1 | inconclusive: 35.5 µM [inhibitor, partial curve, poor fit] |  |
| CC(OC(=O)c1cccs1)C(=O)Nc1nc(-c2ccccc2)cs1 (stereo unspecified) | inconclusive: 35.5 µM [inhibitor, single point] |  |
| COC(=O)C1CCN(C(=O)C2CC(=O)N(c3ccc(C)c(Cl)c3)C2)CC1 (stereo unspecified) | inconclusive: 35.5 µM [activator, single point] |  |
| O=C(N/N=C/c1ccc(Cl)cc1)C1CC12CCC2 (stereo unspecified) | inconclusive: 11.2 µM [inhibitor, partial curve, poor fit] |  |
| COC(=O)c1c(SC)nc2ccccc2c1OCc1cc(C)ccc1C | inconclusive: 6.31 µM [activator, single point] |  |
| Cc1ccc(CNC(=O)c2ccc(NC(=O)c3nsc4ccccc34)cc2)cc1 | inconclusive: 1.12 µM [activator, full curve] |  |
| CCOc1cccc(C(=O)Nc2ccccc2N2CCN(C(=O)C(C)C)CC2)c1 | inconclusive: 17.8 µM [inhibitor, single point] |  |
| O=C(Nc1nccs1)c1cc(S(=O)(=O)N2CCOCC2)c(Cl)cc1Cl | inconclusive: 29.1 µM [inhibitor, single point] |  |
| CC(C(=O)Nc1c2c(cc3c1CCC3)CCC2)N1CCCC1 (stereo unspecified) | inconclusive: 32.6 µM [inhibitor, partial curve, poor fit] |  |
| Cc1ccc(-c2csc3nc(CN(C)Cc4ccccc4)[nH]c(=O)c23)cc1 |  | inactive: -23.3% [at 46.1 µM] |
| O=C(Cc1ccc(S(=O)(=O)N2CCOCC2)s1)N1CCN(S(=O)(=O)c2cccc([N+](=O)[O-])c2)CC1 | inconclusive: 1.26 µM [inhibitor, single point] |  |
| O=C(Cc1cccs1)Nc1cccc([N+](=O)[O-])c1 |  | inactive: -1.34% |

| SMILES | Potency | activity change, negative = inhibition |
| --- | --- | --- |
| Cc1cc(C(C)(C)C)cc(C)c1CC1=NCCN1 | inconclusive: 20.6 µM [inhibitor, single point] and inconclusive: 18.3 µM [inhibitor, single point] |  |
| Cc1ccccc1NC(=O)CSc1nc2ccc(NC(=O)c3ccco3)cc2s1 |  | inactive: -4.33% [at 46.1 µM] |
| COc1cccc(NC(=O)NC2CCN(CC(=O)Nc3ccccc3[N+](=O)[O-])CC2)c1 | inconclusive: 11.2 µM [inhibitor, partial curve, poor fit] |  |
| CC(=O)Nc1ccc(Nc2ccc(S(=O)(=O)C(F)(F)F)cc2[N+](=O)[O-])cc1 |  | inactive: -17% |
| Cc1[nH]c2ccccc2c1/C=N/NC(=S)NC(C)C | inconclusive: 35.5 µM [inhibitor, single point] |  |
| CCOC(=O)Cn1nnnc1CN(Cc1cccs1)Cc1cc2cc(C)cc(C)c2[nH]c1=O |  | inactive: -14.5% |
| S=C(NCc1ccco1)Nc1ccc(N2CCOCC2)cc1 |  | inactive: 17.4% |
| Cc1cc(C)c2nc(NNC(=O)c3ccc(S(=O)(=O)N4CCCC(C)C4)cc3)sc2c1 (stereo unspecified) | inconclusive: 16.4 µM [inhibitor, single point] |  |
| COc1cc(CC(C)N)c(OC)cc1I (stereo unspecified) | inconclusive: 0.73 µM [activator, full curve, poor fit] |  |
| Cc1ccc(C(=O)NCCSc2ccc(Cl)cc2)cc1S(=O)(=O)Nc1ccccc1 | inconclusive: 8.2 µM [inhibitor, partial curve, poor fit] |  |
| COC(=O)CN1C(=O)N/C(=C/c2ccccc2OC)C1=O |  | inactive: 0.958% |
| CCOc1cc(Cl)c(S(=O)(=O)n2cc(C)nc2CC)cc1Cl | inconclusive: 17.8 µM [inhibitor, single point] |  |
| CC(C)(C)c1cc(CN2CCC(O)CC2)cc(C(C)(C)C)c1O |  | inactive: -24.9% |
| CCc1cc2c(NCCO)ncnc2s1 | inconclusive: 1.16 µM [inhibitor, partial curve, poor fit] |  |
| Cc1ccc(SCCN)cc1C | inconclusive: 3.16 µM [inhibitor, partial curve, poor fit] |  |
| COc1ccc(Nc2nc(N3CCOCC3)nc(N3CCOCC3)n2)cc1Cl |  | inactive: -19.9% |
| COc1cccc(NC(=O)c2oc3ccc(S(=O)(=O)N4CCC5(CC4)OCCO5)cc3c2C)c1 | inconclusive: 7.94 µM [inhibitor, partial curve, poor fit] |  |
| CC(C)(C)c1ccc(-n2nc(C#N)c(Cl)cc2=O)cc1 | inconclusive: 35.5 µM [inhibitor, single point] |  |
| COc1ccc(NC(=O)C(=O)NCCN2CCN(C(=O)c3cccc(Br)c3)CC2)cc1 | inconclusive: 12.6 µM [inhibitor, single point] |  |
| Cc1ccc(CCNC(=O)C2CCCN(S(=O)(=O)c3cccc4nsnc34)C2)cc1 (stereo unspecified) | inconclusive: 2.82 µM [activator, full curve, poor fit] |  |

Looked up by structure from the entries so far:

| SMILES | Potency | activity change, negative = inhibition |
| --- | --- | --- |
| CC(C)(C)c1cc(CN2CCC(O)CC2)cc(C(C)(C)C)c1O |  | inactive: -24.9% |
| COc1cccc(NC(=O)c2oc3ccc(S(=O)(=O)N4CCC5(CC4)OCCO5)cc3c2C)c1 | inconclusive: 7.94 µM [inhibitor, partial curve, poor fit] |  |
